Laboratory results taken from paper PMC3174242.
These are yes or no findings as the source states them, for the method shown. For part of these data: Binding seen in cells or lysates may run through a third protein. Some results given as binding are weak or reduced against the parent protein; the word gives no strength. For part of these data: Tags and fused reporters may be left off the sequences shown.

B1: endogenous Rep8 (HeLa cells) (protein, UniProt O00124 1-270)
chain: MASRGVVGIFFLSAVPLVCLELRRGIPDIGIKDFLLLCGRILLLLALLTLIISVTTSWLNSFKSPQVYLKEEEEKNEKRQKLVRKKQQEAQGEKASRYIENVLKPHQEMKLRKLEERFYQMTGEAWKLSSGHKLGGDEGTSQTSFETSNREAAKSQNLPKPLTEFPSPAEQPTCKEIPDLPEEPSQTAEEVVTVALRCPSGNVLRRRFLKSYSSQVLFDWMTRIGYHISLYSLSTSFPRRPLAVEGGQSLEDIGITVDTVLILEEKEQTN

Tests used:
[1] = molecular target: T1, GST-tagged Rep8 UBX domain (truncation) (human) (UniProt O00124); test: pull-down; GST or GST fusion proteins immobilised on glutathione Sepharose beads; purified p97 (from red blood cells, or 6His-tagged p97 and truncations), about 3 ug p97 per reaction, buffer A, 4°C, 4 h; bound proteins by SDS-PAGE and blotting; both purified
T1 sequence: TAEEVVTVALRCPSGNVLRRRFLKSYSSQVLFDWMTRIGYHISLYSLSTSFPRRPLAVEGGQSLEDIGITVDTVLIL

GST-tagged Rep8 (human) = molecular target: T2, GST-tagged Rep8 (human) (UniProt O00124); test: as above
T2 sequence: B1 chain

[2] = molecular target: endogenous p97 (HeLa cells) (human (endogenous in HeLa)) (UniProt P55072); test: co-IP; endogenous p97 immunoprecipitated from HeLa cell lysates; blot with antibodies to p97 and Rep8

Molecule	binding [1]	binding (GST-tagged Rep8 (human))	binding [2]
p97 purified from human red blood cells (from UniProt P55072 1-806)	binds	binds	
B1			binds
